{
  "source": "PubChem BioAssay AID651640",
  "about": "(Broad Institute, 2012)",
  "note": "The campaign covered roughly 350,000 compounds. About 6,000 (1.7%) were called active. The shares of active, inactive and inconclusive entries below differ from those in the screen. Cut-off read from the data, not from the text of the source: active = CPE inhibition above about 20% (passing the limit was not always enough); inconclusive = no clear call, values can overlap the other calls; tested in BHK-21 cells.",
  "data": [
    {"experiment": "protection of cells from dengue 2 killing – plate reader, single concentration, primary screen (AID 651640);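 note: 0% = median of neutral control wells and 100% = median of positive control wells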", "details": "DENV2-infected cells, cytopathic effect rescue, at 9.99 µM, stronger effect = higher value", "values": [
      {"molecule": "Cc1cccc(NCC(=O)N/N=C/c2cccc(Br)c2)c1", "CPE inhibition": "inactive: 1.02%"},
      {"molecule": "C[C@H](CO)N1C[C@H](C)[C@@H](CN(C)C)Oc2ccc(NS(C)(=O)=O)cc2C1=O", "CPE inhibition": "inconclusive: 58.6%"},
      {"molecule": "COc1ccc(NC(=O)Nc2ccc3c(c2)C(=O)N([C@@H](C)CO)C[C@@H](C)[C@@H](CN(C)S(=O)(=O)c2ccccc2)OCCCC[C@@H](C)O3)cc1", "CPE inhibition": "active: 66.4%"},
      {"molecule": "CCCNC(=O)[C@@H]1[C@@H](CO)[C@@H]2Cn3c(ccc(-c4cccc(F)c4)c3=O)[C@@H]2N1C(=O)CC", "CPE inhibition": "inactive: -14.6%"},
      {"molecule": "C[C@@H]1CN([C@H](C)CO)C(=O)c2cc(C#Cc3ccncc3)cnc2O[C@H]1CN(C)CC1CCOCC1", "CPE inhibition": "inconclusive: 54.4%"},
      {"molecule": "COc1cc(-c2cc(NC=O)c3ncc(-c4cccc(C(F)(F)F)c4)n3c2)cc(OC)c1OC", "CPE inhibition": "inconclusive: 30.3%"},
      {"molecule": "COc1ccc(NC(=O)CCC(=O)N/N=C/c2ccncc2)cc1", "CPE inhibition": "inconclusive: 21.3%"},
      {"molecule": "COc1ccc(NC(=O)c2oc3ccccc3c2C)cn1", "CPE inhibition": "inconclusive: 33%"},
      {"molecule": "CN(C)C(=O)C[C@H]1CC[C@H]2[C@@H](COC[C@H](O)CN2C(=O)c2ccncc2)O1", "CPE inhibition": "inconclusive: 32.4%"},
      {"molecule": "C[C@@H]1CN([C@@H](C)CO)C(=O)c2cc(N(C)C)ccc2O[C@@H]1CN(C)C(=O)Nc1ccc(C(F)(F)F)cc1", "CPE inhibition": "inconclusive: 22.8%"},
      {"molecule": "O=C(NCC[C@@H]1CC[C@@H](NS(=O)(=O)Cc2ccccc2)[C@@H](CO)O1)C1CC1", "CPE inhibition": "inconclusive: 54.5%"},
      {"molecule": "CCCC#Cc1ccc([C@@H]2[C@@H](CO)N3C(=O)CN(S(=O)(=O)c4ccccc4C)C[C@@H]23)cc1", "CPE inhibition": "inactive: 10.4%"},
      {"molecule": "O=C(c1ccccc1F)N1CC[C@H]2[C@H](CO)Nc3ccc(Br)cc3[C@H]21", "CPE inhibition": "inconclusive: 41.5%"},
      {"molecule": "Cc1ccc(CNC(=O)COc2cccc3c2OC(C)(C)C3)cc1", "CPE inhibition": "inconclusive: 23.3%"},
      {"molecule": "O=C(N/N=C/c1ccc2nccnc2c1)c1ccc(Br)cc1", "CPE inhibition": "inconclusive: 23.4%"},
      {"molecule": "C[C@@H]1CN([C@@H](C)CO)C(=O)c2cccc(NC(=O)C3CCOCC3)c2O[C@@H]1CN(C)C", "CPE inhibition": "inconclusive: 31.3%"},
      {"molecule": "CC1CCCCC1NC(=O)COCc1cc(-c2cccs2)on1", "note": "(stereo not drawn)", "CPE inhibition": "inconclusive: 25.2%"},
      {"molecule": "COc1cccc(NC(=O)CCC2CCN(Cc3nccs3)CC2)c1", "CPE inhibition": "inconclusive: 23.5%"},
      {"molecule": "COCCNC(=O)C[C@H]1CC[C@H]2[C@@H](COc3ccc(NC(=O)COC)cc3C(=O)N2C)O1", "CPE inhibition": "inconclusive: 25.2%"},
      {"molecule": "O=[N+]([O-])c1ccccc1S(=O)(=O)Nc1ccc(S(=O)(=O)Nc2nccs2)cc1", "CPE inhibition": "inconclusive: 23.2%"},
      {"molecule": "C[C@@H]1CN([C@H](C)CO)C(=O)c2cc(NC(=O)CCCN(C)C)ccc2O[C@H]1CN(C)CC1CCCCC1", "CPE inhibition": "inconclusive: 22.4%"},
      {"molecule": "CCOc1ccc(NC(=O)CC2C(=O)N(c3ccc(OC)cc3)C(=O)N2CCc2cccs2)cc1", "note": "(stereo not drawn)", "CPE inhibition": "active: 96.3%"},
      {"molecule": "COc1ccc(OCC(=O)Nc2ccc3c(c2)CCC3)cc1", "CPE inhibition": "inconclusive: 30.3%"},
      {"molecule": "Cc1[nH]n(-c2ccccc2)c(=O)c1N=Nc1ccc2c(c1)OCO2", "CPE inhibition": "inconclusive: 20.8%"},
      {"molecule": "COc1cccc(S(=O)(=O)Nc2ccc3c(c2)OC[C@H](C)N(C(=O)Cc2cccnc2)C[C@H](C)[C@@H](OC)CN(C)C3=O)c1", "CPE inhibition": "inconclusive: 51.4%"},
      {"molecule": "CCOC(=O)[C@]12CCC=C1N(Cc1ccco1)C(=O)[C@H](CC(=O)NCC13CC4CC(CC(C4)C1)C3)C2", "CPE inhibition": "inconclusive: 60%"},
      {"molecule": "S=C(Nc1ccccc1)Nc1ccc2ccccc2c1", "CPE inhibition": "inconclusive: 20.5%"},
      {"molecule": "CC(C)CC#Cc1cnc2c(c1)C(=O)N([C@H](C)CO)C[C@H](C)[C@H](CN(C)C(=O)C1CCCCC1)O2", "CPE inhibition": "inconclusive: 25.4%"},
      {"molecule": "O=C(NC1CCCC1)N1CC(=O)N2[C@H](CO)[C@H](c3ccc(C4=CCCC4)cc3)[C@@H]2C1", "CPE inhibition": "inconclusive: 26.5%"},
      {"molecule": "O=C(C[C@H]1CC[C@H]2[C@@H](COC[C@H](O)CN2C(=O)c2cccnc2)O1)NCc1ccc(-c2ccccc2)cc1", "CPE inhibition": "active: 22.2%"},
      {"molecule": "CCN(C)c1cc2c(c3c1ccn3C)C1CCC2C1", "note": "(stereo not drawn)", "CPE inhibition": "inconclusive: 26.4%"},
      {"molecule": "COc1ccc(C(=O)NCC(=O)OCc2ccc(F)cc2)cc1", "CPE inhibition": "inactive: 1.94%"},
      {"molecule": "CO[C@H]1CC[C@@H]2CCN(C)C(=O)CCCN(C)C(=O)c3cccc(C#N)c3OC[C@H]1O2", "CPE inhibition": "inconclusive: 27.9%"},
      {"molecule": "CO[C@H]1CN(C)C(=O)c2ccc(NC(=O)NC(C)C)cc2OC[C@H](C)N(CCC(F)(F)F)C[C@H]1C", "CPE inhibition": "active: 54.6%"},
      {"molecule": "COCC#Cc1ccc2c(c1)O[C@@H](CN(C)Cc1ccncc1)[C@@H](C)CN([C@@H](C)CO)S2(=O)=O", "CPE inhibition": "active: 22.1%"},
      {"molecule": "CCCNC(=O)N1[C@H](C#N)[C@@H](c2ccccc2C2=CCCC2)[C@@H]1CO", "CPE inhibition": "active: 23.3%"},
      {"molecule": "CO[C@H]1CN(C)C(=O)c2ccc(NC(=O)Nc3cccc(F)c3)cc2OC[C@@H](C)N(C(C)=O)C[C@H]1C", "CPE inhibition": "inconclusive: 21.4%"},
      {"molecule": "CCOC(=O)c1ccc(N2C(=O)C3CCCN3C2=S)cc1", "note": "(stereo not drawn)", "CPE inhibition": "inconclusive: 26.5%"},
      {"molecule": "CC(C)Cc1cc(C(=O)NCCN2CCOCC2)no1", "CPE inhibition": "inconclusive: 22%"},
      {"molecule": "CN1CCN(C(=O)C[C@H]2CC[C@@H]3[C@H](COC[C@H](O)CN3C(=O)C3CC3)O2)CC1", "CPE inhibition": "inconclusive: 20.3%"},
      {"molecule": "CCCCCCCCN1C(=O)[C@H](CC(=O)NCc2cccc3ccccc23)C[C@@]2(C(=O)OC)CC(C)(C)CC=C12", "CPE inhibition": "inactive: -6.45%"},
      {"molecule": "COC(=O)CCc1cccc(CCC(=O)OC)c1", "CPE inhibition": "active: 46%"},
      {"molecule": "CC1CCc2c(sc3ncnc(SCC(=O)N(C)C4CCS(=O)(=O)C4)c23)C1", "note": "(stereo not drawn)", "CPE inhibition": "inconclusive: 48.8%"},
      {"molecule": "Cc1noc(C)c1NC(=O)N(C)C[C@@H]1OCCCC[C@H](C)Oc2ccc(NC(=O)NC(C)C)cc2C(=O)N([C@H](C)CO)C[C@@H]1C", "CPE inhibition": "inactive: -0.13%"},
      {"molecule": "Cn1c(=O)[nH]c(=O)c2c1nc(SCC(O)CO)n2CCCc1ccccc1", "note": "(stereo not drawn)", "CPE inhibition": "inactive: -0.429%"},
      {"molecule": "CC1=C(C(=O)N2CCCCCC2)CC(CC(=O)NCc2cccs2)C(=O)N1CCC1=CCCCC1", "note": "(stereo not drawn)", "CPE inhibition": "inconclusive: 72.4%"},
      {"molecule": "C[C@H](CO)N1C[C@H](C)[C@@H](CN(C)C(=O)Oc2ccccc2)OCc2cn(nn2)CCCC1=O", "CPE inhibition": "inconclusive: 20.8%"},
      {"molecule": "CCCNC(=O)N[C@@H]1CC[C@@H](CCn2cc(C3CCCC3)nn2)O[C@H]1CO", "CPE inhibition": "active: 33.2%"},
      {"molecule": "CCOc1ccc(-n2c(SCC(N)=O)nnc2-c2cccnc2)cc1", "CPE inhibition": "active: 23%"},
      {"molecule": "CN(C)CCCNC(=O)C[C@@H]1CC[C@H]2[C@H](COc3ccc(NC(=O)c4ccccc4F)cc3C(=O)N2C)O1", "CPE inhibition": "inconclusive: 37.1%"},
      {"molecule": "O=C(O)c1ccc(Cl)c(S(=O)(=O)Nc2ccc(OCc3ccccc3)cc2)c1", "CPE inhibition": "inconclusive: 22.8%"},
      {"molecule": "COc1cc(CN2[C@@H]3CNC[C@H]2C3c2ccc(/C=C/c3ccccc3)cc2)cc(OC)c1", "note": "(stereo partly drawn)", "CPE inhibition": "inconclusive: 24.2%"},
      {"molecule": "COc1ccc(N/C(N)=N/c2nc(C)cc(C)n2)cc1", "CPE inhibition": "inconclusive: 42.9%"},
      {"molecule": "COC(=O)C[C@@H]1CC[C@H]2[C@H](COc3ccc(NC(=O)c4ccc(C(F)(F)F)cc4)cc3C(=O)N2C)O1", "CPE inhibition": "inactive: -5.18%"},
      {"molecule": "CC1(C(=O)NS(=O)(=O)c2ccccc2Cl)CCN1C(=O)CC1CC1", "note": "(stereo not drawn)", "CPE inhibition": "inconclusive: 32.9%"},
      {"molecule": "COCCNc1nc(Nc2ccc(C)cc2C)c2sc(-c3ccccc3)cc2n1", "CPE inhibition": "inconclusive: 26.2%"},
      {"molecule": "CN1CCN(C(=O)[C@@H]2[C@@H](CO)[C@@H]3Cn4c(ccc(-c5cccnc5)c4=O)[C@@H]3N2CC2CC2)CC1", "CPE inhibition": "inactive: 2.73%"},
      {"molecule": "COc1ccc(S(=O)(=O)N(C)C[C@H]2OCCCC[C@@H](C)Oc3ccc(N(C)C)cc3C(=O)N([C@H](C)CO)C[C@H]2C)cc1", "CPE inhibition": "inconclusive: 51.5%"},
      {"molecule": "CCCCN1C(=N)N([C@@H](CCC)CN2CCC[C@H]2CN2C(N)=NC[C@@H]2Cc2ccccc2)C[C@H]1[C@H](C)CC", "CPE inhibition": "inconclusive: 25.1%"},
      {"molecule": "CN(C)CCNC(=O)c1ccc2c(=O)n(Cc3ccc(Cl)cc3)c(=S)[nH]c2c1", "CPE inhibition": "inactive: 3.75%"},
      {"molecule": "N#C/C(=C\\c1ccc(N2CCOCC2)c([N+](=O)[O-])c1)c1nc2ccccc2[nH]1", "CPE inhibition": "inactive: -5.8%"},
      {"molecule": "CN(C)C(=O)C[C@@H]1CC[C@@H]2[C@H](COC[C@@H](O)CN2CC2CCCCC2)O1", "CPE inhibition": "inactive: 1.06%"},
      {"molecule": "O=C(Nc1cccc(-c2cccc(F)c2)c1)C1CCN(Cc2ccc(CO)o2)CC1", "CPE inhibition": "inconclusive: 35.4%"},
      {"molecule": "CC1CCCC(C)N1CCCNC(=O)c1nn(C)c2c1CSc1ccccc1-2", "note": "(stereo not drawn)", "CPE inhibition": "inactive: -0.76%"},
      {"molecule": "COc1cccc(CN2CCNC(=O)C2CC(=O)N(C)C2CCOCC2)c1OC", "note": "(stereo not drawn)", "CPE inhibition": "inconclusive: 33.6%"},
      {"molecule": "N#Cc1nc(-c2ccccc2F)oc1N1CCN(C(=O)c2ccco2)CC1", "CPE inhibition": "inconclusive: 39.5%"},
      {"molecule": "C[C@H](CO)N1C[C@H](C)[C@H](CN(C)S(=O)(=O)c2ccccc2)Oc2ccc(NC(=O)Nc3ccc(C(F)(F)F)cc3)cc2C1=O", "CPE inhibition": "inactive: -2.03%"},
      {"molecule": "CC(O)Cc1cn([C@@H](CCCCN)C(=O)N2CCNCC2)nn1", "note": "(stereo partly drawn)", "CPE inhibition": "active: 24.8%"},
      {"molecule": "CCC(=O)N1C[C@@H](C)[C@H](OC)CN(C)C(=O)c2ccc(NC(=O)COC)cc2OC[C@@H]1C", "CPE inhibition": "inconclusive: 26.1%"},
      {"molecule": "COCCNC(=O)C1(C)CCN(C(=O)c2ccc(OC)c(F)c2)C1", "note": "(stereo not drawn)", "CPE inhibition": "inconclusive: 20.1%"},
      {"molecule": "COc1ccc(OC(=O)c2ccc(OC)c(S(=O)(=O)N3CCOCC3)c2)cc1", "CPE inhibition": "inconclusive: 49.6%"},
      {"molecule": "C[C@@H]1CN([C@H](C)CO)C(=O)Cc2cc(NS(=O)(=O)c3ccc(Cl)cc3)ccc2O[C@@H]1CN(C)S(=O)(=O)c1ccc(Cl)cc1", "CPE inhibition": "inconclusive: 30.8%"},
      {"molecule": "Cc1cc(C(=O)Nc2ccc3c(c2)C(=O)N(C)[C@@H]2CC[C@H](CC(=O)NCc4ccc(-c5ccccc5)cc4)O[C@@H]2CO3)no1", "CPE inhibition": "inconclusive: 20.2%"}
    ]}
  ]
}
